The text below walks through data of article PMC10275998.

Results are given in words; binding and its absence hold for the method and conditions named. Binding seen in cells or lysates may run through a third protein. A result given as binding can be weak or reduced; the word gives no strength. Sequences can lack the tags named with a protein.

First the molecules themselves.
B1: YN-fused Arabidopsis CRF6 (protein, UniProt Q9M374 1-315)
chain: MERRTRRVKFTENRTVTNVAATPSNGSPRLVRITVTDPFATDSSSDDDDNNNVTVVPRVKRYVKEIRFCQGESSSSTAARKGKHKEEESVVVEDDVSTSVKPKKYRGVRQRPWGKFAAEIRDPSSRTRIWLGTFVTAEEAAIAYDRAAIHLKGPKALTNFLTPPTPTPVIDLQTVSACDYGRDSRQSLHSPTSVLRFNVNEETEHEIEAIELSPERKSTVIKEEEESSAGLVFPDPYLLPDLSLAGECFWDTEIAPDLLFLDEETKIQSTLLPNTEVSKQGENETEDFEFGLIDDFESSPWDVDHFFDHHHHSFD
B2: YN-fused Arabidopsis SPL4/FTM6 (protein, UniProt Q9S7A9 1-174)
chain: MEGKRSQGQGYMKKKSYLVEEDMETDTDEEEEVGRDRVRGSRGSINRGGSLRLCQVDRCTADMKEAKLYHRRHKVCEVHAKASSVFLSGLNQRFCQQCSRFHDLQEFDEAKRSCRRRLAGHNERRRKSSGESTYGEGSGRRGINGQVVMQNQERSRVEMTLPMPNSSFKRPQIR
B3: YN-fused Arabidopsis TCP4 (protein, UniProt Q8LPR5 1-420)
chain: MSDDQFHHPPPPSSMRHRSTSDAADGGCGEIVEVQGGHIVRSTGRKDRHSKVCTAKGPRDRRVRLSAHTAIQFYDVQDRLGFDRPSKAVDWLIKKAKTSIDELAELPPWNPADAIRLAAANAKPRRTTAKTQISPSPPPPQQQQQQQQLQFGVGFNGGGAEHPSNNESSFLPPSMDSDSIADTIKSFFPVIGSSTEAPSNHNLMHNYHHQHPPDLLSRTNSQNQDLRLSLQSFPDGPPSLLHHQHHHHTSASASEPTLFYGQSNPLGFDTSSWEQQSSEFGRIQRLVAWNSGGGGGATDTGNGGGFLFAPPTPSTTSFQPVLGQSQQLYSQRGPLQSSYSPMIRAWFDPHHHHQSISTDDLNHHHHLPPPVHQSAIPGIGFASGEFSSGFRIPARFQGQEEEQHDGLTHKPSSASSISRH
B4: YN-fused Arabidopsis TCP3 (protein, UniProt Q9MAH8 1-391)
chain: MAPDNDHFLDSPSPPLLEMRHHQSATENGGGCGEIVEVQGGHIVRSTGRKDRHSKVCTAKGPRDRRVRLSAPTAIQFYDVQDRLGFDRPSKAVDWLITKAKSAIDDLAQLPPWNPADTLRQHAAAAANAKPRKTKTLISPPPPQPEETEHHRIGEEEDNESSFLPASMDSDSIADTIKSFFPVASTQQSYHHQPPSRGNTQNQDLLRLSLQSFQNGPPFPNQTEPALFSGQSNNQLAFDSSTASWEQSHQSPEFGKIQRLVSWNNVGAAESAGSTGGFVFASPSSLHPVYSQSQLLSQRGPLQSINTPMIRAWFDPHHHHHHHQQSMTTDDLHHHHPYHIPPGIHQSAIPGIAFASSGEFSGFRIPARFQGEQEEHGGDNKPSSASSDSRH
B5: YN-fused Arabidopsis ERF5 (protein, UniProt O80341 1-300)
chain: MATPNEVSALWFIEKHLLDEASPVATDPWMKHESSSATESSSDSSSIIFGSSSSSFAPIDFSESVCKPEIIDLDTPRSMEFLSIPFEFDSEVSVSDFDFKPSNQNQNQFEPELKSQIRKPPLKISLPAKTEWIQFAAENTKPEVTKPVSEEEKKHYRGVRQRPWGKFAAEIRDPNKRGSRVWLGTFDTAIEAARAYDEAAFRLRGSKAILNFPLEVGKWKPRADEGEKKRKRDDDEKVTVVEKVLKTEQSVDVNGGETFPFVTSNLTELCDWDLTGFLNFPLLSPLSPHPPFGYSQLTVV

For the test, the target named is C-terminal segment of YFP (YC)-fused NIb of TuMV (turnip mosaic virus). Kind of test: split reporter; BiFC: YN- and YC-fused proteins co-expressed in N. benthamiana epidermal cells by agroinfiltration, confocal microscopy at 2 dpi.
Turning to B1, the binding entry was “binds”.

In the case of B2, the binding entry is “binds”.

With B3, the binding result is listed as “binds”.

Take B4: the binding result is recorded as “binds”.

Consider B5, for which the binding result is “binds”.
